Values from PubChem BioAssay AID1053208 (Peter MacCallum Cancer Centre, 2014)
Shown is a random part of about 17,000 reagents. Over the whole deposit, 788 (4.7%) got an active call. 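Calls rest on z-score classes alone; an extra cut-off of viability at most 70% of control was not applied to them.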 Unmarked entries are inactive. Reagents against one gene are numbered here. Not all columns of the deposit are shown. Reagent sequences are not shown.

- Purpose: 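Find knock-downs that sensitise mouse osteosarcoma cells to doxorubicin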 (primary screen)
- System: mouse osteosarcoma cells, early-passage culture from an engineered mouse model of fibroblastic bone tumour
- Knock-down reagent: siRNA pool against mouse genes, 40 nM
- Duration: about 120 h (48 h before drug, then 72 h with drug)
- Conditions: doxorubicin 100 nM for 72 h, roughly 30-40% inhibitory dose
- Measurement: 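Viability read as ATP luminescence after 72 h of 100 nM doxorubicin or none, duplicate wells averaged, scaled to non-targeting siRNA, then expressed as robust z-scores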
- Direction: viability z-score with doxorubicin: higher = more viable cells under doxorubicin; viability z-score without drug: higher = more viable cells with knock-down alone
- Hit rule: 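a pool counts as active when its viability z-score with doxorubicin is -2 or below and its z-score without drug lies between -2 and 2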

Gene	pool no.	combined z-score class	viability z-score with doxorubicin	viability z-score without drug
Spag11a	1	no change with or without drug	-1.12	-0.51
Dhfr	1	no change with or without drug	-0.34	-0.51
Psd4	1	no change with or without drug	-0.67	1.18
Lipi	1	no change with or without drug	1.24	0.51
Clec9a	1	no change with or without drug	-1.91	-1.18
Zfp870	1	no change with or without drug	0.67	0.51
Slc24a5	1	no change with or without drug	0.9	1.52
Xlr3c	1	no change with or without drug	0.56	0.51
Siva1	1	no change with or without drug	0.45	-0.17
Adam33	1	no change with or without drug	0.45	0.84
Cuzd1	1	no change with or without drug	0.22	-0.67
Nlrx1	1	no change with or without drug	-0.67	0
Mul1	1	no change with or without drug	1.91	-0.34
Efna4	1	no change with or without drug	-1.35	-0.17
Mrpl51	1	no change with or without drug	-1.57	-1.69
Ppp1r14c	1	no change with or without drug	-0.67	1.01
Kcnq3	1	no change with or without drug	0.45	1.18
Lcn3	1	high cell count without drug only	1.69	2.19
S100a16	1	no change with or without drug	0.45	0.51
Cd33	1	no change with or without drug	0.9	1.69
Snap91	1	no change with or without drug	1.12	0.51
Ston2	1	no change with or without drug	-0.34	-0.51
Tspan18	1	no change with or without drug	-1.24	-1.52
Plcg2	1	no change with or without drug	-0.34	-1.01
Or11h4b	1	no change with or without drug	-0.45	1.18
Defb13	1	no change with or without drug	0.22	0.67
Syngr3	1	no change with or without drug	-1.57	-0.17
Ddit4	1	no change with or without drug	1.57	1.52

Continued (9 carried over from the part before).
Gene	pool no.	combined z-score class	viability z-score with doxorubicin	viability z-score without drug
Cd33	1	no change with or without drug	0.9	1.69
Snap91	1	no change with or without drug	1.12	0.51
Ston2	1	no change with or without drug	-0.34	-0.51
Tspan18	1	no change with or without drug	-1.24	-1.52
Plcg2	1	no change with or without drug	-0.34	-1.01
Or11h4b	1	no change with or without drug	-0.45	1.18
Defb13	1	no change with or without drug	0.22	0.67
Syngr3	1	no change with or without drug	-1.57	-0.17
Ddit4	1	no change with or without drug	1.57	1.52
Smcr8	1	no change with or without drug	-1.69	0.51
Sost	1	no change with or without drug	-0.22	-0.17
Spart	1	no change with or without drug	0.45	-0.17
Hoxa4	1	no change with or without drug	1.35	-0.51
Osbpl1a	1	no change with or without drug	1.57	0.84
Osbpl1a	2	high cell count without drug only	0.56	2.19
D030060O14RIK	1	high cell count without drug only	1.12	2.02
Krt5	1	no change with or without drug	-0.67	0.84
Lce1g	1	no change with or without drug	-1.8	-1.18
Or8b1b	1	high cell count without drug only	0.22	2.19
Hsh2d	1	high cell count with doxorubicin only	2.47	-0.51
Plscr1	1	no change with or without drug	0.67	-0.17
Rnf121	1	low cell count with doxorubicin only (active)	-3.15	-1.35
Gucy1a1	1	no change with or without drug	1.12	-0.34
Fbxl3	1	no change with or without drug	-0.45	-0.17
Vdr	1	no change with or without drug	0.67	0.84
Ppp1ca	1	no change with or without drug	-1.57	-1.52
Stag2	1	no change with or without drug	-1.35	1.18
Dach2	1	no change with or without drug	-1.12	-0.84
Acad11	1	no change with or without drug	0.45	0.51
Smpdl3a	1	no change with or without drug	0.45	-0.17
Cops8	1	no change with or without drug	-0.9	0.84
Sin3a	1	low cell count without drug only	-1.57	-2.19
Or10g3	1	no change with or without drug	0.22	-0.51
Eya3	1	no change with or without drug	0.11	-0.51
Lsm4	1	no change with or without drug	-0.9	-1.85
Or7e178	1	no change with or without drug	0.34	0.17
Rufy2	1	high cell count with and without drug	2.81	2.87
Atp1a2	1	no change with or without drug	-1.12	-0.17
Atp2a1	1	no change with or without drug	-0.79	-0.84
Ncoa3	1	no change with or without drug	1.12	-1.85
Gsdmc	1	low cell count with and without drug	-3.15	-2.7
Lmbr1	1	no change with or without drug	0	-0.67
Alyref2	1	low cell count with and without drug	-5.17	-4.89
Nlrp9a	1	no change with or without drug	0	-0.84
